For two molecules, binding results are on record in doi:10.1101/2024.10.21.619543.

Amino acid sequences for entries named in this document (tags omitted).
UniProt Q9C005: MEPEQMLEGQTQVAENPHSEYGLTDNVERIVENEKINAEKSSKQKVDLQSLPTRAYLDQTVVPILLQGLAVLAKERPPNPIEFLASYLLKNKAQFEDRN
UniProt Q99LT0: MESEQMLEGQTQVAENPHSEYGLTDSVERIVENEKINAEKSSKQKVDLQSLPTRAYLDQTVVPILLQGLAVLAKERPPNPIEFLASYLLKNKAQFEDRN

Read-outs that look alike come from different tables or passages of the source. Results are given in words; binding and its absence hold for the method and conditions named. Binding seen in cells or lysates may run through a third protein. These calls come from enrichment with a bait or labelling near it, and not all partners need be listed.

Common to all, as to assay: affinity purification with mass spectrometry
Experiment [1] addresses DPY30 (endogenous, human PDAC cells) (human (endogenous in PATC53 and PATC66)) (UniProt Q9C005).
For experiment [2] the target is unchanged. The source holds these as a separate data set.
The target of experiment [3] is DPY30 (endogenous, mouse KPC cells) (mouse (endogenous in KPC)) (UniProt Q99LT0).

B1: WDHD1 (endogenous, human PDAC cells) (protein, UniProt O75717 1-1129)
chain: MPATRKPMRYGHTEGHTEVCFDDSGSFIVTCGSDGDVRIWEDLDDDDPKFINVGEKAYSCALKSGKLVTAVSNNTIQVHTFPEGVPDGILTRFTTNANHVVFNGDGTKIAAGSSDFLVKIVDVMDSSQQKTFRGHDAPVLSLSFDPKDIFLASASCDGSVRVWQISDQTCAISWPLLQKCNDVINAKSICRLAWQPKSGKLLAIPVEKSVKLYRRESWSHQFDLSDNFISQTLNIVTWSPCGQYLAAGSINGLIIVWNVETKDCMERVKHEKGYAICGLAWHPTCGRISYTDAEGNLGLLENVCDPSGKTSSSKVSSRVEKDYNDLFDGDDMSNAGDFLNDNAVEIPSFSKGIINDDEDDEDLMMASGRPRQRSHILEDDENSVDISMLKTGSSLLKEEEEDGQEGSIHNLPLVTSQRPFYDGPMPTPRQKPFQSGSTPLHLTHRFMVWNSIGIIRCYNDEQDNAIDVEFHDTSIHHATHLSNTLNYTIADLSHEAILLACESTDELASKLHCLHFSSWDSSKEWIIDLPQNEDIEAICLGQGWAAAATSALLLRLFTIGGVQKEVFSLAGPVVSMAGHGEQLFIVYHRGTGFDGDQCLGVQLLELGKKKKQILHGDPLPLTRKSYLAWIGFSAEGTPCYVDSEGIVRMLNRGLGNTWTPICNTREHCKGKSDHYWVVGIHENPQQLRCIPCKGSRFPPTLPRPAVAILSFKLPYCQIATEKGQMEEQFWRSVIFHNHLDYLAKNGYEYEESTKNQATKEQQELLMKMLALSCKLEREFRCVELADLMTQNAVNLAIKYASRSRKLILAQKLSELAVEKAAELTATQVEEEEEEEDFRKKLNAGYSNTATEWSQPRFRNQVEEDAEDSGEADDEEKPEIHKPGQNSFSKSTNSSDVSAKSGAVTFSSQGRVNPFKVSASSKEPAMSMNSARSTNILDNMGKSSKKSTALSRTTNNEKSPIIKPLIPKPKPKQASAASYFQKRNSQTNKTEEVKEENLKNVLSETPAICPPQNTENQRPKTGFQMWLEENRSNILSDNPDFSDEADIIKEGMIRFRVLSTEERKVWANKAKGETASEGTEAKKRKRVVDESDETENQEEKAKENLNLSKKQKPLDFSTNQKLSAFAFKQE
Turning to B1, the binding result in experiment [1] and in experiment [2] was “binds” in each case.

B2: WDHD1 (endogenous, mouse KPC cells) (protein, UniProt P59328 1-1117)
chain: MPATQKPMRYGHTEGHTEVCFDDSGSYIVTCGSDGDVRMWEDLDDDDPKSVNVGEKAFSCALKNGKLVTAVSNNTVQVYTFPEGVPDGILTRFTTNANHVVFNGAGNKIAAGSSDFLVKVVDVMDNSQQQTFRGHDAPVLSLSFDPKDIFLASASCDGTVRVWNISDQTCAVSWPVLQKSNDVVNAKSICRLAWQPKAGKLLAVPVEKSVKLYRRETWSNPFDLSDSSISQTLNIVTWSPCGQYLAAGAINGLIVVWNVETKDCMERVKHEKGYAICGLAWHPTCSRICYTDVEGNLGVLENVCDLSGKVSSNKVSSRVEKDYNDLFDGDDTSSAGDFLNDNAVEIPSFSKGIINEDDDNDDIMLAADHDLGDDENSVDVTMLKADLSHKEEGDDDQARSIHNLPLIRPQRPFYDGPMPTPRQKPFQSSSTPLHLSHRFMVWNSVGIIRCYNDDQDSAIDVEFHDTSIHHATHLLNAFNYTMGTLSHEAILLACESADELASKLHCLHFSSWDSSKEWMVDMPQNEDIEAICLGLGWAAAATTALLLRLFTIGGVQKEVFCLPGPVVSMAGHGEQLCIVYHRGTGFDGDQCLGVQLLELGRKKNQVLHGDPLPLTRKSYLTWLGFSAEGTPCYVDSEGCVRMLNRGLGNTWTPVCNIREHCKGKSDHYWVVGIHENPQQLRCIPCKGSRFPPTLPRPAVAILSFKLPYCQTSTEKGQMEEQFWHSVLFHNYLDYLAKNGYDYEESIKNQAVKEQQELLMKMLALSCKLEREFRCVELADLMTQNAVHLAIKYASRSRKLILAQKLSELAAEKAAELAETQSEEEKEEDFREKLNAGYSHTTTEWSRPRVRSQVEDAEDREDTVSEEKPESHNHGQNLFQSANSSDTPALKSGAVFSSSQGWVNPFKVVVSSKEPAVSANSTRSANILDSMNKSSRKSTSLNRMENNEKSPVIKPLTPKPRSKQASAASYFQKRTPQADKTEEVKENPKSSSSDAPAVCLQNSENQRPKTGFQMWLEENRSQILSDNPDISDETDIIKEGMIRFRVLSAEERKAWTNKAKGETASDGAEAKKRKRVVSEICETENQEETVKENLDLSKKQKALNLPANQKLSAFAFKQ
Consider B2, for which the binding result in experiment [3] was “binds”.
